In doi:10.1101/2024.11.05.621850:
These are yes or no findings as the source states them, for the method shown. Binding seen in cells or lysates may run through a third protein. Some entries that bind do so weakly or less than the wild type. Sequences can lack the tags named with a protein.

The chains behind the UniProt entries cited, without tags or fusion partners. Where a name states a change or a piece, a line headed by the entry shows the natural chain unless it says otherwise.
UniProt P61106, whole entry, looked up, stated change not applied: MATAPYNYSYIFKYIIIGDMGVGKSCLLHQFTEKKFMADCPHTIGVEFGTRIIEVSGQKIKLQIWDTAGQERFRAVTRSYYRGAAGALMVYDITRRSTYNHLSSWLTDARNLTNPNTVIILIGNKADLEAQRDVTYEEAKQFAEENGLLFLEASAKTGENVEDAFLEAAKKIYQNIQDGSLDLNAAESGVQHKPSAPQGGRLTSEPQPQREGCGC

Columns and labels:
[1] = biological target: T1, EGFP:DENND6A (human (cDNA of HeLa, HCT116 and MCF7 cells)) (UniProt Q8IWF6); assay: co-IP
T1 sequence: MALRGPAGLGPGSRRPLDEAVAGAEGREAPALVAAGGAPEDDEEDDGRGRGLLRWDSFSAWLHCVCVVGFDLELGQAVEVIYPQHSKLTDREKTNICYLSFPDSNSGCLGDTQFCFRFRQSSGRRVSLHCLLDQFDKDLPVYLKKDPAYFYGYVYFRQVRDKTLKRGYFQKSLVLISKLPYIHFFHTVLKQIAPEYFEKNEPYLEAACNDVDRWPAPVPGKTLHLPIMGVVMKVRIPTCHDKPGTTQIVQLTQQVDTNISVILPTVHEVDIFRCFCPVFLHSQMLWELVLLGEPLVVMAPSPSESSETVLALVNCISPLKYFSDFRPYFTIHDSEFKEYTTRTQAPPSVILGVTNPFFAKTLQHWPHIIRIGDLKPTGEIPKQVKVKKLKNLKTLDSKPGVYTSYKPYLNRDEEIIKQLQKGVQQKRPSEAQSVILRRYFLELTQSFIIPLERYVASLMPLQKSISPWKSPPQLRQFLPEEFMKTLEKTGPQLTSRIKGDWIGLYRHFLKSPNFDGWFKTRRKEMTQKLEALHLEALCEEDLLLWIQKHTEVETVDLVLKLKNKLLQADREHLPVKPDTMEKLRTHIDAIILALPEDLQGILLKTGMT

[2] = biological target: GFP:RAB14 Q70L (CA) (human) (UniProt P61106); assay: proximity ligation
[3] = biological target: GFP:RAB14 Q70L (CA) (human) (UniProt P61106); assay: co-IP

B1: HA:RAB25 WT (protein, UniProt P57735 1-213)
chain: MGNGTEEDYNFVFKVVLIGESGVGKTNLLSRFTRNEFSHDSRTTIGVEFSTRTVMLGTAAVKAQIWDTAGLERYRAITSAYYRGAVGALLVFDLTKHQTYAVVERWLKELYDHAEATIVVMLVGNKSDLSQAREVPTEEARMFAENNGLLFLETSALDSTNVELAFETVLKEIFAKVSKQRQNSIRTNAITLGSAQAGQEPGPGEKRACCISL
- binding [1]: binds

B2: VPS54-13xMYC (protein, UniProt Q9P1Q0 1-977)
chain: MASSHSSSPVPQGSSSDVFFKIEVDPSKHIRPVPSLPDVCPKEPTGDSHSLYVAPSLVTDQHRWTVYHSKVNLPAALNDPRLAKRESDFFTKTWGLDFVDTEVIPSFYLPQISKEHFTVYQQEISQREKIHERCKNICPPKDTFERTLLHTHDKSRTDLEQVPKIFMKPDFALDDSLTFNSVLPWSHFNTAGGKGNRDAASSKLLQEKLSHYLDIVEVNIAHQISLRSEAFFHAMTSQHELQDYLRKTSQAVKMLRDKIAQIDKVMCEGSLHILRLALTRNNCVKVYNKLKLMATVHQTQPTVQVLLSTSEFVGALDLIATTQEVLQQELQGIHSFRHLGSQLCELEKLIDKMMIAEFSTYSHSDLNRPLEDDCQVLEEERLISLVFGLLKQRKLNFLEIYGEKMVITAKNIIKQCVINKVSQTEEIDTDVVVKLADQMRMLNFPQWFDLLKDIFSKFTIFLQRVKATLNIIHSVVLSVLDKNQRTRELEEISQQKNAAKDNSLDTEVAYLIHEGMFISDAFGEGELTPIAVDTTSQRNASPNSEPCSSDSVSEPECTTDSSSSKEHTSSSAIPGGVDIMVSEDMKLTDSELGKLANNIQELLYSASDICHDRAVKFLMSRAKDGFLEKLNSMEFITLSRLMETFILDTEQICGRKSTSLLGALQSQAIKFVNRFHEERKTKLSLLLDNERWKQADVPAEFQDLVDSLSDGKIALPEKKSGATEERKPAEVLIVEGQQYAVVGTVLLLIRIILEYCQCVDNIPSVTTDMLTRLSDLLKYFNSRSCQLVLGAGALQVVGLKTITTKNLALSSRCLQLIVHYIPVIRAHFEARLPPKQYSMLRHFDHITKDYHDHIAEISAKLVAIMDSLFDKLLSKYEVKAPVPSACFRNICKQMTKMHEAIFDLLPEEQTQMLFLRINASYKLHLKKQLSHLNVINDGGPQNGLVTADVAFYTGNLQALKGLKDLDLNMAEIWEQKR
- binding [2]: binds
- binding [3]: binds weakly
